Assay results published in the supplement of paper PMC12819154, “High-throughput peptide-centric local stability assay extends protein–ligand identification to membrane proteins, tissues and bacteria” (Nature Structural & Molecular Biology, 2025).
Some of the results follow. Small differences around the control level are noise.

By UniProt entry, the sequences of proteins in these tests, tags left out. Where a name states a change or a piece, a line headed by the entry shows the natural chain unless it says otherwise.
UniProt P77526: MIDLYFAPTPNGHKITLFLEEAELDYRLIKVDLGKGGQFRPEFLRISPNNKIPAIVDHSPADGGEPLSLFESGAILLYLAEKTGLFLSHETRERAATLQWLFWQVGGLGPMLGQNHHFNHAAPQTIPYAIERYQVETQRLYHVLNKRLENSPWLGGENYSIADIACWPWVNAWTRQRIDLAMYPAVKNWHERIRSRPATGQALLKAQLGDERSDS
UniProt P77309: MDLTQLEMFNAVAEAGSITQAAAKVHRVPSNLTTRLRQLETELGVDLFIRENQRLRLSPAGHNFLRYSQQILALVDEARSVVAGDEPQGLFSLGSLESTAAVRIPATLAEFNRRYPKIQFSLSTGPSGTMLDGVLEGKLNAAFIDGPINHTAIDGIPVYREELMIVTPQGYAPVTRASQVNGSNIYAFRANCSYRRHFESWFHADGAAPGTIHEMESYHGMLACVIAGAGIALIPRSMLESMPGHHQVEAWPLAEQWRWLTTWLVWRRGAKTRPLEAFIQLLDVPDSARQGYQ
UniProt P76034: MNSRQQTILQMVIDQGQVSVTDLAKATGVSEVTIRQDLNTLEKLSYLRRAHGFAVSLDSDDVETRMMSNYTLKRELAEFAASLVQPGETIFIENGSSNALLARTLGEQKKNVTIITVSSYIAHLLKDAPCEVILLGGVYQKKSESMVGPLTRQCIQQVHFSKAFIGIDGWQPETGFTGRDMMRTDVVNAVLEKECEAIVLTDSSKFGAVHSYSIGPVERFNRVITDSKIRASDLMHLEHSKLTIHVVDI
UniProt P76129: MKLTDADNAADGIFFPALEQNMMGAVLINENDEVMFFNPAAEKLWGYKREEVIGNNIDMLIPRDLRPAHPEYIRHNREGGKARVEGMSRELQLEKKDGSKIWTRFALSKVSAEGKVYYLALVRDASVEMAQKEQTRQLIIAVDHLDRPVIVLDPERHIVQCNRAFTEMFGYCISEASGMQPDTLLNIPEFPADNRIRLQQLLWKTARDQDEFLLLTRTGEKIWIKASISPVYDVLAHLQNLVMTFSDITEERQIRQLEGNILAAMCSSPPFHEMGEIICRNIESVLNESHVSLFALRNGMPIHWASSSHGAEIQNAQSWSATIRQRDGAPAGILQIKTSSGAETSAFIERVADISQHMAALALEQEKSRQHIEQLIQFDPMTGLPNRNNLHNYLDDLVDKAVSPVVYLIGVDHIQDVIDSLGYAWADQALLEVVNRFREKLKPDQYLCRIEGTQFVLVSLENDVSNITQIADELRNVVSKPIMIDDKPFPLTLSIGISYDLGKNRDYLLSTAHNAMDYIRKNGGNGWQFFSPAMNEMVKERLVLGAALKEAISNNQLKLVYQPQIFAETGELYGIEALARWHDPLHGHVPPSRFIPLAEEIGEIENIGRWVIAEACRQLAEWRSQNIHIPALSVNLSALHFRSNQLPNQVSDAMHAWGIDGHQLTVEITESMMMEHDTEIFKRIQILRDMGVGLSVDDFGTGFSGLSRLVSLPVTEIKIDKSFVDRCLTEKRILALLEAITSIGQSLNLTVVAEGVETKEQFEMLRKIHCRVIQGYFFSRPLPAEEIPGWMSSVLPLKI
UniProt P75972: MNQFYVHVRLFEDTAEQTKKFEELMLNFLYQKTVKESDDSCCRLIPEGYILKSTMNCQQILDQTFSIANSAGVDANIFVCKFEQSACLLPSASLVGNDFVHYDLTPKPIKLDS
UniProt P76561: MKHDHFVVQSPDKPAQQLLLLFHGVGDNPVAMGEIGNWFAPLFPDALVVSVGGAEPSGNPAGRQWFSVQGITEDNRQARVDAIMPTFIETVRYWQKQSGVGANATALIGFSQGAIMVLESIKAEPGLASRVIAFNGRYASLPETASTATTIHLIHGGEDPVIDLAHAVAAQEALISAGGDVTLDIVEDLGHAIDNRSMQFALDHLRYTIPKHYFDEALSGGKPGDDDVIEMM
UniProt P77433: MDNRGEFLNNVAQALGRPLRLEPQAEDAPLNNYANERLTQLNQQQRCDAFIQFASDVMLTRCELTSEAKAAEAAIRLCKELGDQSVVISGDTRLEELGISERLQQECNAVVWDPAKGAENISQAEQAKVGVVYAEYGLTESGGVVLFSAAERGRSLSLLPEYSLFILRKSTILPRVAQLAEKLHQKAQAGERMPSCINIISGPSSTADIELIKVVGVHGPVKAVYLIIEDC
UniProt P76346: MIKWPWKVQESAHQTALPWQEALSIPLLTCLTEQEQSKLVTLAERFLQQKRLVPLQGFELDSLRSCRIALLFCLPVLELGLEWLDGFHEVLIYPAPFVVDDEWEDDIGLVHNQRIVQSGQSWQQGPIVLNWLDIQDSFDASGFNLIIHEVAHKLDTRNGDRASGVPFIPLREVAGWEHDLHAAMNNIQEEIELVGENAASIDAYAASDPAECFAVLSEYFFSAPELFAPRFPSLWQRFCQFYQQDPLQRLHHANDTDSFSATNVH
UniProt P77567: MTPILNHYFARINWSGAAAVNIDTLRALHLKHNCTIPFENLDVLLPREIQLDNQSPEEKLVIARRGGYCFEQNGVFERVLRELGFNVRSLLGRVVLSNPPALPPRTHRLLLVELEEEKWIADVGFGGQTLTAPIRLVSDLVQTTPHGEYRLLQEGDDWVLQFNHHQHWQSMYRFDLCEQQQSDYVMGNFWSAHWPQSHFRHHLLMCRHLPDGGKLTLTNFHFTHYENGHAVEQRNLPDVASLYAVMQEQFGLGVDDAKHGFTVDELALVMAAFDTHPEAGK
UniProt P77399: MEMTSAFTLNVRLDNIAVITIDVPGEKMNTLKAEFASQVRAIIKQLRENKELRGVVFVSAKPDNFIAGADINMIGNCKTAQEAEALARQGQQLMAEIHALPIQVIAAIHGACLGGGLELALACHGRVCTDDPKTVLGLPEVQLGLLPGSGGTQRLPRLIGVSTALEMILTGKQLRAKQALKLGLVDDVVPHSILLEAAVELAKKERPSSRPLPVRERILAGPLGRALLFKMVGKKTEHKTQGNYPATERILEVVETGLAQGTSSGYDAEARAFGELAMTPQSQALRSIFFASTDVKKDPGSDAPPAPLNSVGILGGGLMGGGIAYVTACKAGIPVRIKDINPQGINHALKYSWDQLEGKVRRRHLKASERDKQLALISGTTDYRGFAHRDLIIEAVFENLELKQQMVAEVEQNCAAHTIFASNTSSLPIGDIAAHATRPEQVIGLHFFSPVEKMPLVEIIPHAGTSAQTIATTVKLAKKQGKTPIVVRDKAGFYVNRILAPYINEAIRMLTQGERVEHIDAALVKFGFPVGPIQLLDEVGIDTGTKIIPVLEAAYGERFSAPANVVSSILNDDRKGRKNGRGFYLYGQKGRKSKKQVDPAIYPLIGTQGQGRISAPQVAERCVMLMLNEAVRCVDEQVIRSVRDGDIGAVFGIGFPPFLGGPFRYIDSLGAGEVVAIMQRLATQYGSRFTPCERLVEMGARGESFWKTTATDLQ
UniProt P76121: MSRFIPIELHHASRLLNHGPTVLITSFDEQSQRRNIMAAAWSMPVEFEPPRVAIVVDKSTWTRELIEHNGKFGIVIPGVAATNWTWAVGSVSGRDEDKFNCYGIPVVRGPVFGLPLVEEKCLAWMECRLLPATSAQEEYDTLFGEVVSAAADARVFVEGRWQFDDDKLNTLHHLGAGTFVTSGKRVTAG
UniProt P77181: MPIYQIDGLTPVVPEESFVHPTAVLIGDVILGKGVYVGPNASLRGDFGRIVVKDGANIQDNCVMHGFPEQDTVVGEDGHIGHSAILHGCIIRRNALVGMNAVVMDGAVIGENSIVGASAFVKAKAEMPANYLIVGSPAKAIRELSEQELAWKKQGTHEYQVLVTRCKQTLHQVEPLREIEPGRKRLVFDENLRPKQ
UniProt P76417: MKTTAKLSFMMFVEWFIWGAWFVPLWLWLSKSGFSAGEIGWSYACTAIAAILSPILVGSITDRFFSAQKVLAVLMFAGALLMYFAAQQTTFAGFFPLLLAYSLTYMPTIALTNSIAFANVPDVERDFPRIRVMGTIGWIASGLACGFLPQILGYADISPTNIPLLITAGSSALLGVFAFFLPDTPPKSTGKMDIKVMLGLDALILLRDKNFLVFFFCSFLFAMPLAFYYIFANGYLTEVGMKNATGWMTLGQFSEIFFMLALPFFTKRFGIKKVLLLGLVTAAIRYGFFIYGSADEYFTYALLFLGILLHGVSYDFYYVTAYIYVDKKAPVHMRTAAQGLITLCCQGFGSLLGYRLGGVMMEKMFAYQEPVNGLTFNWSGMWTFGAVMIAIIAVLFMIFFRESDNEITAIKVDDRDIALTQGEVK
UniProt P77318: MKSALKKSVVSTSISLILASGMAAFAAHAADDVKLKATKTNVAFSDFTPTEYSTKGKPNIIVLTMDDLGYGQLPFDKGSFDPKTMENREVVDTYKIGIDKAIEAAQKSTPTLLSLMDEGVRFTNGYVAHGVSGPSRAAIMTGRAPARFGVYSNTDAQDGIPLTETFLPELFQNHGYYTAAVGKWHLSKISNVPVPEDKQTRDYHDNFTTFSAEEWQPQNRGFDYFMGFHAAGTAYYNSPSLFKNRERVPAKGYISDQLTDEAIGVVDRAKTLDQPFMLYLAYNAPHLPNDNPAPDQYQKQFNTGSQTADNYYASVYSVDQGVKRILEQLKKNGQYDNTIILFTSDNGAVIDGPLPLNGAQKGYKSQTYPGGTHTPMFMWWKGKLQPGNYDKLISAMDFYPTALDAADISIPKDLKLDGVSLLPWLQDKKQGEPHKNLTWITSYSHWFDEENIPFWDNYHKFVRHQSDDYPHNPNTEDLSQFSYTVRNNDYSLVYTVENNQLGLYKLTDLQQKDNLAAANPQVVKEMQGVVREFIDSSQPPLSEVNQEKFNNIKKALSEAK
UniProt P76440: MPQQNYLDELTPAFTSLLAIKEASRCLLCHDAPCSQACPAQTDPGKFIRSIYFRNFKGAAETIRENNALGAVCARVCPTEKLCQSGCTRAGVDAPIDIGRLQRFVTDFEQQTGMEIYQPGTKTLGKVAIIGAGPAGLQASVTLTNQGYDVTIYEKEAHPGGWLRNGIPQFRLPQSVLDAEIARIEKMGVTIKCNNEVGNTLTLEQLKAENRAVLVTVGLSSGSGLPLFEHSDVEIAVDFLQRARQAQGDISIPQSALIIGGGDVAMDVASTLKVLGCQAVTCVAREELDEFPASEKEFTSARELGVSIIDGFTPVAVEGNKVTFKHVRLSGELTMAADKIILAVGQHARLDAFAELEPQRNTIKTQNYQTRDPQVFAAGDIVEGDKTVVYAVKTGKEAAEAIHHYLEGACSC
UniProt P76134: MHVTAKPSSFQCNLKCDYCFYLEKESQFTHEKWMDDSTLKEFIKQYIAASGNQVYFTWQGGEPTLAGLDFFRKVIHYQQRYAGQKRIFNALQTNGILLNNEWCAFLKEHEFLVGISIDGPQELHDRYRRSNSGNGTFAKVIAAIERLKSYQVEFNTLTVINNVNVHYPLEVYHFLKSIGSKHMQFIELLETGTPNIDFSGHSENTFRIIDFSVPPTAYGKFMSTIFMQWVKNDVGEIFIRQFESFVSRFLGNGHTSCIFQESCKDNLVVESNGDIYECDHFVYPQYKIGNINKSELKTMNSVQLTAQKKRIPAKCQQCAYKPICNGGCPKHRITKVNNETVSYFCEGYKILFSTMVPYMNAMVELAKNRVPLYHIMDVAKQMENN
UniProt P77285: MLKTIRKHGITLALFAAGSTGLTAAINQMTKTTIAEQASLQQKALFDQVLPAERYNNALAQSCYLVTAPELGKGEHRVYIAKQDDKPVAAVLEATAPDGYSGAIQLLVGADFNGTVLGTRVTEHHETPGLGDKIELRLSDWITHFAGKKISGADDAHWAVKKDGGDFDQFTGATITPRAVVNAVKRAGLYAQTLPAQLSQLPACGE
UniProt P76498: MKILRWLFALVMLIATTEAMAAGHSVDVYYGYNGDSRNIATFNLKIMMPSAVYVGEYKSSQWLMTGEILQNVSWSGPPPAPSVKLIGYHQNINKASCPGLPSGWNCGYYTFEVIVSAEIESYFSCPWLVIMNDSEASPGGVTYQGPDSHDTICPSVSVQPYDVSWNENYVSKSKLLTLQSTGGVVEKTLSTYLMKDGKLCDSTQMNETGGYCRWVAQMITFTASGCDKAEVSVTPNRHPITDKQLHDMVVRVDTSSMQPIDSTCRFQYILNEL
UniProt P77607: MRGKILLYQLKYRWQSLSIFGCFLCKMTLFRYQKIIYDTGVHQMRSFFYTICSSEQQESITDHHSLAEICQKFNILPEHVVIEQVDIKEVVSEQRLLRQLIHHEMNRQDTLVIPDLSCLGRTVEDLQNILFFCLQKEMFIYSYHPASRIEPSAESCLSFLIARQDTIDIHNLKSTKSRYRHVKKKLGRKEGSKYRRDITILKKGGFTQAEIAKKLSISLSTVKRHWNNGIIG
UniProt P76187: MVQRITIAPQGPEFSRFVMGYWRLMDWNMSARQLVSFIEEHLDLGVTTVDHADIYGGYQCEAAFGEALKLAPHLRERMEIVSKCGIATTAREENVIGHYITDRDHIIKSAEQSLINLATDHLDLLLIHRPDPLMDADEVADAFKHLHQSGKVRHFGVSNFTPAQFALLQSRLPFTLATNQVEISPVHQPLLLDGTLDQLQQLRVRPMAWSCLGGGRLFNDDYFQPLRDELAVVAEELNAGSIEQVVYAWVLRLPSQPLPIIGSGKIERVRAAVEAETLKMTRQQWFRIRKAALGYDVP

What follows are targets tested with CC1(C)S[C@@H]2[C@H](NC(=O)[C@H](N)c3ccccc3)C(=O)N2[C@H]1C(=O)O [ampicillin] (assay: log2 fold change of tryptic peptide abundance, ligand vs vehicle (limited proteolysis) (log2 ratio); higher = more trypsin-susceptible (destabilized)). Details: ligand concentration: 10 uM; sample: E. coli crude lysate.

Target | log2 fold change
UniProt P77526 (peptide sequence: SRPATGQALLK, peptide start residue: 195) | -0.34
UniProt P76938 (peptide sequence: VHAQVMDYLTNGIPERPAR, peptide start residue: 138) | -0.115
UniProt P77309 (peptide sequence: LSPAGHNFLR, peptide start residue: 57) | 0.132
UniProt P76034 (peptide sequence: IRASDLMHLEHSK, peptide start residue: 229) | 0.728
UniProt P77221 (peptide sequence: LMLAQALHMGDECHNR, peptide start residue: 229) | 0.16
UniProt P76129 (peptide sequence: VADISQHMAALALEQEK, peptide start residue: 351) | 0.188
UniProt P75972 (peptide sequence: LFEDTAEQTKK, peptide start residue: 10) | -0.648
UniProt P76561 (peptide sequence: QWFSVQGITEDNRQAR, peptide start residue: 64) | -0.164
UniProt P77433 (peptide sequence: SLSLLPEYSLFILRK, peptide start residue: 155) | -0.333
UniProt P76206 (peptide sequence: QFLNGPVHSFR, peptide start residue: 141) | 0.586
UniProt P76346 (peptide sequence: RLVPLQGFELDSLR, peptide start residue: 51) | -0.21
UniProt P77567 (peptide sequence: LVSDLVQTTPHGEYR, peptide start residue: 136) | 0.288
UniProt P77399 (peptide sequence: TAQEAEALAR, peptide start residue: 79) | -0.297
UniProt P76121 (peptide sequence: CLAWMECR, peptide start residue: 121) | 0.0201
UniProt P77181 (peptide sequence: LVFDENLRPK, peptide start residue: 186) | -0.153
UniProt P77562 (peptide sequence: LALDGDLIR, peptide start residue: 258) | 0.351

Target | log2 fold change
UniProt P76046 (peptide sequence: LKNELNALVNR, peptide start residue: 4) | -0.372
UniProt P76339 (peptide sequence: VECNQQIFADK, peptide start residue: 336) | 0.835
UniProt P77585 (peptide sequence: NFDYGAANHR, peptide start residue: 228) | -0.272
UniProt P76417 (peptide sequence: DIALTQGEVK, peptide start residue: 416) | 0.244
UniProt P76539 (peptide sequence: LGYEHADVLSLGK, peptide start residue: 121) | 0.116
UniProt P76575 (peptide sequence: KRVEFVLA, peptide start residue: 64) | -0.137
UniProt P77509 (peptide sequence: RAAELGVR, peptide start residue: 84) | 0.101
UniProt P77318 (peptide sequence: EFIDSSQPPLSEVNQEKFNNIKK, peptide start residue: 532) | 0.334
UniProt P76440 (peptide sequence: LSGELTMAADKIILAVGQHAR, peptide start residue: 329) | 0.698
UniProt P76134 (peptide sequence: ESQFTHEK, peptide start residue: 25) | -0.78
UniProt P77285 (peptide sequence: TTIAEQASLQQK, peptide start residue: 32) | 0.454
UniProt P77564 (peptide sequence: QWLQGMR, peptide start residue: 24) | -0.313
UniProt P76498 (peptide sequence: LLTLQSTGGVVEK, peptide start residue: 175) | -0.597
UniProt P77607 (peptide sequence: RHWNNGIIG, peptide start residue: 224) | 0.311
UniProt P76187 (peptide sequence: LMDWNMSAR, peptide start residue: 24) | -0.268

Random excerpt: two entries already listed, in no set order.
Target | log2 fold change
UniProt P77318 (peptide sequence: EFIDSSQPPLSEVNQEKFNNIKK, peptide start residue: 532) | 0.334
UniProt P77585 (peptide sequence: NFDYGAANHR, peptide start residue: 228) | -0.272
